The supplement of paper PMC10849652
The list shows a part of the results.

Chains of the proteins cited; added tags and fusions are not shown. Lines headed by an entry give the natural chain unless they say otherwise; changes in a name come on top.
UniProt Q9NUP1: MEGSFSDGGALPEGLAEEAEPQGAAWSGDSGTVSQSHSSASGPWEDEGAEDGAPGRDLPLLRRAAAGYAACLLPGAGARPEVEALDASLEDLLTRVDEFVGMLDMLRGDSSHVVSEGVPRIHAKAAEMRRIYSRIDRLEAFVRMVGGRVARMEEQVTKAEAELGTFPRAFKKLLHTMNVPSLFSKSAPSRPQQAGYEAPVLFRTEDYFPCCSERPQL
UniProt Q9P287, whole entry, looked up: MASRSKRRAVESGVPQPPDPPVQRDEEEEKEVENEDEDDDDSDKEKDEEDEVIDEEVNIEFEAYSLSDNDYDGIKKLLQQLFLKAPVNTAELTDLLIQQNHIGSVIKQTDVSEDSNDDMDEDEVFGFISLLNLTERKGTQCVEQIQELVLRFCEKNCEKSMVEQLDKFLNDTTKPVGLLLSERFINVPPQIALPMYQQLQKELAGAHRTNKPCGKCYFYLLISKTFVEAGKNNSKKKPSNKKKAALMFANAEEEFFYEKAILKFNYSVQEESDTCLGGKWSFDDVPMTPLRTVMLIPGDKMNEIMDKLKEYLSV
UniProt Q8TDN6: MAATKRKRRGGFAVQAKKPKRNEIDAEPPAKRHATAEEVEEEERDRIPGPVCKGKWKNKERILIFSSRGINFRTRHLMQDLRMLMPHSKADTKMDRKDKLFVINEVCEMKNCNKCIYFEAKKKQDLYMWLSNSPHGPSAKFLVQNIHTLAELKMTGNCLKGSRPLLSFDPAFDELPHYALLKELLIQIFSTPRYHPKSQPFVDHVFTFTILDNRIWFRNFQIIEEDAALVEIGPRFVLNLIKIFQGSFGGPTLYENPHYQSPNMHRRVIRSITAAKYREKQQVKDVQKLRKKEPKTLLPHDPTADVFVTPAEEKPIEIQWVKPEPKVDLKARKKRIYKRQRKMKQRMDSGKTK
UniProt Q86UU0: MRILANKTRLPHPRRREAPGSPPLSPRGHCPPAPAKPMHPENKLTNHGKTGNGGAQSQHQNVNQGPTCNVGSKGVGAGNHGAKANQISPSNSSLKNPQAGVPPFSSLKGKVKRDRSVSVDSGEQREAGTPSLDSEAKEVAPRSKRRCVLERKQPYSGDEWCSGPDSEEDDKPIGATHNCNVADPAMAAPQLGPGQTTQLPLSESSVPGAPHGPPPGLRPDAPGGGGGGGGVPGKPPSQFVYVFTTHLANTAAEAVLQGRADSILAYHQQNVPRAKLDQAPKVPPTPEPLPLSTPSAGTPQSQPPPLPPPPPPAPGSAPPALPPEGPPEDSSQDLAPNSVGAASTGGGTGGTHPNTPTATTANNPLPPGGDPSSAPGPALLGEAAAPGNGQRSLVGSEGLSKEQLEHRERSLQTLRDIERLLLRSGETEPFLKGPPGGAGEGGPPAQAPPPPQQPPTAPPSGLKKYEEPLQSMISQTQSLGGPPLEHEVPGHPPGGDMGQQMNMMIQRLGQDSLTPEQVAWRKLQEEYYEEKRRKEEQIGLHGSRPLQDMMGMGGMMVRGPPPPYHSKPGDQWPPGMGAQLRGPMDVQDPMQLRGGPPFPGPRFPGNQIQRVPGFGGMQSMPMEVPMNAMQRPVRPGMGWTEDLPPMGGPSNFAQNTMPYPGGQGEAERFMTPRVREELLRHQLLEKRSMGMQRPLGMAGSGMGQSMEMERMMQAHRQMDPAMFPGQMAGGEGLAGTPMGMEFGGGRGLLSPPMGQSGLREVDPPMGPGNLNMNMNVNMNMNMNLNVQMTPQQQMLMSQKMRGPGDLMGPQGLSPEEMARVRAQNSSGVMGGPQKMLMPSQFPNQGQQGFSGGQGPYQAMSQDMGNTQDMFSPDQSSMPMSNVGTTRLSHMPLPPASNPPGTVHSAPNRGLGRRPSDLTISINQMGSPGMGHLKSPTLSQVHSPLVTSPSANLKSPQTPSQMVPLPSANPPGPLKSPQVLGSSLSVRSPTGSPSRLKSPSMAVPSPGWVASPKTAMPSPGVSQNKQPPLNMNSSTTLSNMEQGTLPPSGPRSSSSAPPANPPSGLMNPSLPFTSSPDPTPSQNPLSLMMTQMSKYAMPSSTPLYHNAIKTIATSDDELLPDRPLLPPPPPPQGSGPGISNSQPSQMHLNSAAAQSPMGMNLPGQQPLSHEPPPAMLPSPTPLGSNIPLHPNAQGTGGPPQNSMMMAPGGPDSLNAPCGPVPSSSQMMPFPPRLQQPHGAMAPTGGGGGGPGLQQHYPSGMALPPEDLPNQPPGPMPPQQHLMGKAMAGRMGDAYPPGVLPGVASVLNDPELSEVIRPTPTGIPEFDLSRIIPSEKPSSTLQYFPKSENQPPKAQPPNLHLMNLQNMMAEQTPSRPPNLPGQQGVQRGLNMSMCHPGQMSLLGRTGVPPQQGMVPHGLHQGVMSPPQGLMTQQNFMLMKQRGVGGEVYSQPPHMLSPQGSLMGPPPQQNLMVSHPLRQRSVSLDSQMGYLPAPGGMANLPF
UniProt Q9BSF8: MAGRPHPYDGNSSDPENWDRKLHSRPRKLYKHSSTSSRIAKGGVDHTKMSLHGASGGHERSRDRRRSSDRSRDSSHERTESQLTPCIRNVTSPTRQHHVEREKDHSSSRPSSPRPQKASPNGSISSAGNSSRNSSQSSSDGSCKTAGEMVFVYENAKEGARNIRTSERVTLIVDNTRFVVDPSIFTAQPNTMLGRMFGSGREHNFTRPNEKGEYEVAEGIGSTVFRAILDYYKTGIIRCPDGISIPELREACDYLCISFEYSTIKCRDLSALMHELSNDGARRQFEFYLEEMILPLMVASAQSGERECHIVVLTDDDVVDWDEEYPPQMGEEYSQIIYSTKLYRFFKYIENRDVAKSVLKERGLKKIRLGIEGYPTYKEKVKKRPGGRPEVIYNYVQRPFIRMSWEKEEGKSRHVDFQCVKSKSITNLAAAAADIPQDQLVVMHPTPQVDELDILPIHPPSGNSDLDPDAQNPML
UniProt Q7KYR7: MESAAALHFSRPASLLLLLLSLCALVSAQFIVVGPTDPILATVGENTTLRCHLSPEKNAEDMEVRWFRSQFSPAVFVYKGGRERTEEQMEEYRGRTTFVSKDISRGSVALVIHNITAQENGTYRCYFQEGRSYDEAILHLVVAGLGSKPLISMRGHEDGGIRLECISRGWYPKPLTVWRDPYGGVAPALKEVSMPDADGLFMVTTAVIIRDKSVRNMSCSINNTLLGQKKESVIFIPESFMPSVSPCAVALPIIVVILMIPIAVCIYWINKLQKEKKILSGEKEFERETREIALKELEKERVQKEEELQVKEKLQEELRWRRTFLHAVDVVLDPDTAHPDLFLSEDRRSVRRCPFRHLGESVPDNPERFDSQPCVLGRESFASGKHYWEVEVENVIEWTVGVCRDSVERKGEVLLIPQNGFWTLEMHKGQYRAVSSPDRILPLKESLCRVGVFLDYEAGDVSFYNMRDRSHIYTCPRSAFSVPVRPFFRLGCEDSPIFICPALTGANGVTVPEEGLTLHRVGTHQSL
UniProt O95999: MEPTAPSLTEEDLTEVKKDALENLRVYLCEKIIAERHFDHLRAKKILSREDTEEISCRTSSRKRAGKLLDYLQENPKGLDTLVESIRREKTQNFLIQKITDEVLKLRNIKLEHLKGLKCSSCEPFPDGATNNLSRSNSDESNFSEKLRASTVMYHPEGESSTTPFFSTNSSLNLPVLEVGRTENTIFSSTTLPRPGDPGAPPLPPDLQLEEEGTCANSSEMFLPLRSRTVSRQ
UniProt O95816: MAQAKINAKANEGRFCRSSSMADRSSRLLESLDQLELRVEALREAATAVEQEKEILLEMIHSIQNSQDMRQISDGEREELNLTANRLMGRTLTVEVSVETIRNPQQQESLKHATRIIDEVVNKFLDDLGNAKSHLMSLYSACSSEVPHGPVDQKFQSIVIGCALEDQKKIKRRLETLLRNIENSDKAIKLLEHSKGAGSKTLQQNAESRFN
UniProt Q99728: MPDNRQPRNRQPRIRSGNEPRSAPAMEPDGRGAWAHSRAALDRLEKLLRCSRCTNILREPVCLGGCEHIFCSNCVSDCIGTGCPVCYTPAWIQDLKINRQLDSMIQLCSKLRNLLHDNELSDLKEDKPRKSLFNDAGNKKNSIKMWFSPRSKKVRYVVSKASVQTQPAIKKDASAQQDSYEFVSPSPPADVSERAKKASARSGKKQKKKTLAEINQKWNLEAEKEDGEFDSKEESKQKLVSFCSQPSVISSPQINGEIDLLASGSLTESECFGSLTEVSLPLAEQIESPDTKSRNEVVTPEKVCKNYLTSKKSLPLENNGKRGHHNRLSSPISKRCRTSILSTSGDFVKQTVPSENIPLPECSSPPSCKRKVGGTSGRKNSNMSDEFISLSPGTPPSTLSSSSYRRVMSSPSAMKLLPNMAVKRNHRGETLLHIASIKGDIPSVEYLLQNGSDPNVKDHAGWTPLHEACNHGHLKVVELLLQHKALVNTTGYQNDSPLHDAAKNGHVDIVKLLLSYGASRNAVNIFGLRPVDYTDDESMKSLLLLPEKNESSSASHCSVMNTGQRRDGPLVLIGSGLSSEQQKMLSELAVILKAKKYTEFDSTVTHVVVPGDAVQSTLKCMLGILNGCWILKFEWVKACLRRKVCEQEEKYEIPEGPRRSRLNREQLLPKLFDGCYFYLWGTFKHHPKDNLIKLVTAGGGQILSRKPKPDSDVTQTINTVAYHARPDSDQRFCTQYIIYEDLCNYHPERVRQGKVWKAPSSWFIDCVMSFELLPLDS
UniProt Q9BUT1: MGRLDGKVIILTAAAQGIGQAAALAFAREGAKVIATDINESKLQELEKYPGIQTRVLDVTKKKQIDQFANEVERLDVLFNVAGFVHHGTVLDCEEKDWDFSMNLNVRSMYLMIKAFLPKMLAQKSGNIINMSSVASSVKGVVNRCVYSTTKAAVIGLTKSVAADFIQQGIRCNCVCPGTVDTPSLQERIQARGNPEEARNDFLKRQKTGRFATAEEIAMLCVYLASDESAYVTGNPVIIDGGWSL
UniProt O15155: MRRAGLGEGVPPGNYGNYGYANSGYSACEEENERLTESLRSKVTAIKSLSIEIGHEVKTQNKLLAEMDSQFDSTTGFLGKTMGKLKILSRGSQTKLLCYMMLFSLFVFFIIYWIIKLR
UniProt Q9NPI1: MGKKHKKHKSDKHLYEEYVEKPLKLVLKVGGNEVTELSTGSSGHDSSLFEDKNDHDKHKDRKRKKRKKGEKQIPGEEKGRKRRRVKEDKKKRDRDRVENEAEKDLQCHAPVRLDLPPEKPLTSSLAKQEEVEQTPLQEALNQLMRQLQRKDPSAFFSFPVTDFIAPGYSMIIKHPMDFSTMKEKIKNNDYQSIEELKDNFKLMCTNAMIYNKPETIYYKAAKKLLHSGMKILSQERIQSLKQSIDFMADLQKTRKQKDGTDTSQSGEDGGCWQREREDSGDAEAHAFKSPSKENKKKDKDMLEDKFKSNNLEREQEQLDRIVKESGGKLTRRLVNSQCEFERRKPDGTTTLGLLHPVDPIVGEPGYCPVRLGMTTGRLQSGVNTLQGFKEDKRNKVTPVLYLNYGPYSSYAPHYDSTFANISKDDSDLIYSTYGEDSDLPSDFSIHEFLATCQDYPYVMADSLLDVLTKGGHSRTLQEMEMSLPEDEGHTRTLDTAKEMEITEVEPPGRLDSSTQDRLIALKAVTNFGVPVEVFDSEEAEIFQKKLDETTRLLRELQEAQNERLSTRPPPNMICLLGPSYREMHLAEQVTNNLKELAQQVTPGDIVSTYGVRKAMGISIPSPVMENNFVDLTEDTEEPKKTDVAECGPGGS
UniProt Q92843: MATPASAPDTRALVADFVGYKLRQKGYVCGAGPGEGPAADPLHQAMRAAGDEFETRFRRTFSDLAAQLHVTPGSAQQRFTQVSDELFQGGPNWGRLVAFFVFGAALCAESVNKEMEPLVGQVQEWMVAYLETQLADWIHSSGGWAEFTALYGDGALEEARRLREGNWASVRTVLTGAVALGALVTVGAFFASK
UniProt Q9H3K6: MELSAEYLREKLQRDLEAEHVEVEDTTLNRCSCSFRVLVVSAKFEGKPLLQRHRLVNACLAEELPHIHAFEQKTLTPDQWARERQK
UniProt P21953: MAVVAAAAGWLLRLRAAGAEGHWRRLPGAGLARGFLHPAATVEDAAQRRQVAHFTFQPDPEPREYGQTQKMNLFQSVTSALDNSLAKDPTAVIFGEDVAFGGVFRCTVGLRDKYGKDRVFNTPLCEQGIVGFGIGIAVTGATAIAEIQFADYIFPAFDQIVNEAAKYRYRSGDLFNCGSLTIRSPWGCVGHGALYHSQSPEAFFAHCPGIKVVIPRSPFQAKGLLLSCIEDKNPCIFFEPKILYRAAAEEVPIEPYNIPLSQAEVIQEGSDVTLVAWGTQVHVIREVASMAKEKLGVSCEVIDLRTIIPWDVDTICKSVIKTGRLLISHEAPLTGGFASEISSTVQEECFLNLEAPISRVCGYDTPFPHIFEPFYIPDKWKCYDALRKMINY
UniProt P53004: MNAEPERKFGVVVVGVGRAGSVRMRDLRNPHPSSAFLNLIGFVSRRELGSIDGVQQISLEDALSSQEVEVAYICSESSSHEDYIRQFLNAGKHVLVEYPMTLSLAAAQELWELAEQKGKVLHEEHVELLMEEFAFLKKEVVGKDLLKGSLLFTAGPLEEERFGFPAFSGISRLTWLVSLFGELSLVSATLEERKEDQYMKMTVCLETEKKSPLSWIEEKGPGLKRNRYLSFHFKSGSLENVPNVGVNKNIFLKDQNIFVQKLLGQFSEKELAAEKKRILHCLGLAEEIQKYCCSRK

Legend:
Test in all cases: log2 fold change, soluble protein after heating vs DMSO (PISA); higher = thermal stabilisation; K562 lysate, 10 uM; active = over 0.2 and 3.5 SD of the protein, either way, in both replicates (recomputed)
nilotinib = compound: Cc1cn(-c2cc(NC(=O)c3ccc(C)c(Nc4nccc(-c5cccnc5)n4)c3)cc(C(F)(F)F)c2)cn1 [nilotinib]
Outline: (§1)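 To prepare the extract, K562 pellets were dounce-homogenised in PBS pH 7.4 with 1 mM MgCl2, giving crude material at 1 mg/mL protein. This was treated with 10 μM compound for 30 min, then heated in aliquots for 3 min over 48°C-58°C before pooling and addition of NP-40 to 0.5% at 4°C. Centrifugation at 21,000xg for 90 min left soluble protein in the supernatant, which TMTpro 16plex LC-MS/MS quantified with equalised channel sums. Results are log-two fold changes in thermal stability compared with solvent controls, from duplicates.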

[1] = compound: Cc1nc(Nc2n[nH]c3c2CN(C(=O)N[C@H](CN(C)C)c2ccccc2)C3(C)C)c2sccc2n1
Outline: as §1

dasatinib = compound: Cc1nc(Nc2ncc(C(=O)Nc3c(C)cccc3Cl)s2)cc(N2CCN(CCO)CC2)n1 [dasatinib]
Outline: as §1

[2] = compound: Cc1ncc(-c2ccnc(Nc3ccc(S(C)(=O)=O)cc3)n2)n1C(C)C
Outline: as §1

[3] = compound: Cn1cc(-c2ccc3c(c2)CCN3C(=O)Cc2cccc(C(F)(F)F)c2)c2c(N)ncnc21
Outline: as §1

quisinostat = compound: Cn1cc(CNCC2CCN(c3ncc(C(=O)NO)cn3)CC2)c2ccccc21 [quisinostat]
Outline: as §1

tipifarnib = compound: Cn1cncc1[C@@](N)(c1ccc(Cl)cc1)c1ccc2c(c1)c(-c1cccc(Cl)c1)cc(=O)n2C [tipifarnib]
Outline: as §1

[4] = compound: NC(=O)Nc1cc(-c2cccc(F)c2)sc1C(=O)N[C@H]1CCCNC1
Outline: as §1

[5] = compound: NC(=O)c1cnc(N[C@@H]2CCCC[C@@H]2N)nc1Nc1cccc(-n2nccn2)c1
Outline: as §1

[6] = compound: NC1(c2ccc(-c3nc4ccn5c(=O)[nH]nc5c4cc3-c3ccccc3)cc2)CCC1
Outline: as §1

Measured: log2 fold change

BRCC3 (UniProt P46736)
inactive: nilotinib 0.026 | [1] 0.043 | dasatinib 0 | [2] 0.017 | [3] 0.032 | quisinostat -0.01 | tipifarnib 0.023 | [4] -0.011 | [5] -0.012 | [6] 0.008

BLOC1S4 (UniProt Q9NUP1)
inactive: nilotinib -0.005 | [1] -0.026 | dasatinib -0.041 | [2] -0.002 | [3] -0.07 | quisinostat -0.033 | tipifarnib 0.01 | [4] 0.028 | [5] -0.016 | [6] -0.019

BORCS5 (UniProt Q969J3)
inactive: nilotinib 0.064 | [1] -0.021 | dasatinib -0.025 | [2] 0.082 | [3] -0.003 | quisinostat -0.017 | tipifarnib -0.061 | [4] -0.017 | [5] -0.029 | [6] -0.009

BCCIP (UniProt Q9P287)
inactive: nilotinib 0.003 | [1] -0.002 | dasatinib 0.031 | [2] 0.039 | [3] 0.006 | quisinostat 0.115 | tipifarnib -0.001 | [4] -0.009 | [5] -0.004 | [6] 0.019

BICD1 (UniProt Q96G01)
inactive: nilotinib 0.008 | [1] -0.047 | dasatinib -0.02 | [2] 0.023 | [3] 0.007 | quisinostat 0.017 | tipifarnib 0.039 | [4] -0.006 | [5] 0.016 | [6] -0.006

BRIX1 (UniProt Q8TDN6)
inactive: nilotinib 0.009 | [1] 0.002 | dasatinib -0.017 | [2] 0 | [3] -0.005 | quisinostat 0.032 | tipifarnib -0.001 | [4] -0.003 | [5] -0.007 | [6] 0.003

BACH1 (UniProt O14867)
inactive: nilotinib -0.026 | [1] 0.02 | dasatinib -0.011 | [2] -0.003 | [3] 0.01 | quisinostat -0.027 | tipifarnib 0.044 | [4] 0.046 | [5] 0.033 | [6] 0.012

BCL9L (UniProt Q86UU0)
inactive: nilotinib 0.03 | [1] 0.006 | dasatinib -0.041 | [2] 0.039 | [3] 0.003 | quisinostat -0.081 | tipifarnib -0.059 | [4] -0.025 | [5] 0.042 | [6] -0.059

BRD3 (UniProt Q15059)
inactive: nilotinib -0.069 | [1] 0.074 | dasatinib -0.011 | [2] 0.025 | [3] -0.018 | quisinostat 0.013 | tipifarnib 0.013 | [4] 0.066 | [5] -0.024 | [6] -0.185

BTBD10 isoform 2 (UniProt Q9BSF8)
inactive: nilotinib -0.093 | [1] -0.109 | dasatinib -0.016 | [2] -0.012 | [3] -0.012 | quisinostat -0.105 | tipifarnib 0.072 | [4] 0.035

BTN2A1 (UniProt Q7KYR7)
inactive: nilotinib -0.084 | [1] -0.04 | dasatinib 0.021 | [2] 0.175 | [3] 0.051 | quisinostat -0.032 | tipifarnib -0.08 | [4] 0.015 | [5] 0.053 | [6] 0.015

BCL10 (UniProt O95999)
inactive: nilotinib 0.001 | [1] 0.02 | dasatinib 0.077 | [2] 0.005 | [3] -0.021 | quisinostat 0.005 | tipifarnib 0.012 | [4] -0.026 | [5] 0.038 | [6] 0.001

BCAP29 isoform 2 (UniProt Q9UHQ4)
inactive: nilotinib 0.021 | [1] -0.014 | dasatinib 0.084 | [2] 0.003 | [3] -0.004 | quisinostat 0.046 | tipifarnib -0.038 | [4] -0.006 | [5] 0.028 | [6] 0.016

BAG2 (UniProt O95816)
inactive: nilotinib 0.006 | [1] 0.005 | dasatinib 0.037 | [2] 0.022 | [3] 0.052 | quisinostat -0.021 | tipifarnib 0.013 | [4] -0.011 | [5] -0.001 | [6] 0.028

BARD1 (UniProt Q99728)
inactive: nilotinib 0.125 | [1] 0.005 | dasatinib -0.009 | [2] -0.112 | [3] -0.066 | quisinostat -0.078 | tipifarnib 0.031 | [4] -0.095 | [5] -0.338 | [6] 0.083

BIRC2 (UniProt Q13490)
inactive: nilotinib 0.026 | [1] 0.021 | dasatinib 0.023 | [2] 0.008 | [3] -0.002 | quisinostat -0.016 | tipifarnib 0.002 | [4] 0.016 | [5] -0.049 | [6] -0.01

BDH2 (UniProt Q9BUT1)
inactive: nilotinib -0.005 | [1] -0.064 | dasatinib -0.022 | [2] -0.076 | [3] 0.147 | quisinostat -0.108 | tipifarnib 0.162 | [4] 0.188 | [5] -0.044 | [6] 0.02

BET1 (UniProt O15155)
inactive: nilotinib 0.038 | [1] 0.052 | dasatinib -0.015 | [2] -0.011 | [3] 0 | quisinostat 0.023 | tipifarnib -0.063 | [4] -0.005 | [5] -0.057 | [6] -0.005

BRD7 isoform 2 (UniProt Q9NPI1)
inactive: nilotinib -0.112 | [1] -0.139 | dasatinib -0.018 | [2] 0.065 | [3] 0.148 | quisinostat -0.09 | tipifarnib -0.124 | [4] 0 | [5] -0.072 | [6] -0.022

BRCA1 isoform 7 (UniProt P38398)
inactive: nilotinib -0.11 | [1] 0.018 | dasatinib 0 | [2] 0.053 | [3] 0.014 | quisinostat -0.22 | tipifarnib -0.086 | [4] 0.02 | [5] -0.086 | [6] 0.05

BOD1L1 (UniProt Q8NFC6)
inactive: nilotinib -0.018 | [1] 0.005 | dasatinib -0.004 | [2] 0.018 | [3] -0.02 | quisinostat -0.031 | tipifarnib -0.004 | [4] -0.001 | [5] 0.007 | [6] 0

BCL2L2 isoform 2 (UniProt Q92843)
inactive: nilotinib -0.015 | [1] -0.018 | dasatinib 0.013 | [2] 0.039 | [3] 0.017 | quisinostat -0.041 | tipifarnib 0.049 | [4] -0.03 | [5] 0.003 | [6] 0.037

BOLA2 (UniProt Q9H3K6)
inactive: nilotinib 0.039 | [1] -0.036 | dasatinib -0.002 | [2] -0.021 | [3] 0.009 | quisinostat 0.063 | tipifarnib 0.01 | [4] -0.042 | [5] -0.013 | [6] 0.096

BCKDHB (UniProt P21953)
inactive: nilotinib 0.068 | [1] 0.007 | dasatinib 0.062 | [2] 0.084 | [3] 0.039 | quisinostat 0.031 | tipifarnib -0.069 | [4] -0.005 | [5] 0.007 | [6] -0.039

BLOC1S6 (UniProt Q9UL45)
inactive: nilotinib -0.073 | [1] 0.036 | dasatinib 0.093 | [2] 0.093 | [3] -0.008 | quisinostat 0.042 | tipifarnib -0.063 | [4] -0.049 | [5] -0.023 | [6] 0.096

BTBD6 (UniProt Q96KE9)
inactive: nilotinib 0.073 | [1] -0.037 | dasatinib 0.054 | [2] 0.049 | [3] -0.07 | quisinostat -0.483 | tipifarnib -0.108 | [4] 0.09 | [5] 0.057 | [6] -0.233

BAIAP2 (UniProt Q9UQB8)
inactive: nilotinib -0.002 | [1] -0.008 | dasatinib 0.002 | [2] -0.005 | [3] -0.01 | quisinostat 0.003 | tipifarnib -0.048 | [4] -0.019 | [5] 0.014 | [6] 0.007

BLVRA (UniProt P53004)
inactive: nilotinib 0.029 | [1] -0.024 | dasatinib -0.047 | [2] 0.011 | [3] 0.004 | quisinostat 0.001 | tipifarnib 0.018 | [4] 0 | [5] -0.004 | [6] -0.005

BCL7B (UniProt Q9BQE9)
inactive: nilotinib 0.074 | [1] 0.008 | dasatinib -0.213 | [2] -0.036 | [3] 0 | quisinostat 0.112 | tipifarnib 0.142 | [4] -0.119 | [5] 0.105 | [6] 0.038

Reprinted at random: 2 entries already listed, in no set order.
BLOC1S6 (UniProt Q9UL45)
inactive: nilotinib -0.073 | [1] 0.036 | dasatinib 0.093 | [2] 0.093 | [3] -0.008 | quisinostat 0.042 | tipifarnib -0.063 | [4] -0.049 | [5] -0.023 | [6] 0.096

BTBD6 (UniProt Q96KE9)
inactive: nilotinib 0.073 | [1] -0.037 | dasatinib 0.054 | [2] 0.049 | [3] -0.07 | quisinostat -0.483 | tipifarnib -0.108 | [4] 0.09 | [5] 0.057 | [6] -0.233

The listing continues:

BCKDK (UniProt O14874)
inactive: nilotinib 0.008 | [1] 0.001 | dasatinib 0.023 | [2] -0.061 | [3] 0.058 | quisinostat 0.094 | tipifarnib -0.058 | [4] -0.092 | [5] -0.029 | [6] 0.052
